{
  "sequences": {"note": "The chains behind the UniProt entries cited, without tags or fusion partners. Residues count along the entry.", "UniProt Q5NFG1, 1-205": "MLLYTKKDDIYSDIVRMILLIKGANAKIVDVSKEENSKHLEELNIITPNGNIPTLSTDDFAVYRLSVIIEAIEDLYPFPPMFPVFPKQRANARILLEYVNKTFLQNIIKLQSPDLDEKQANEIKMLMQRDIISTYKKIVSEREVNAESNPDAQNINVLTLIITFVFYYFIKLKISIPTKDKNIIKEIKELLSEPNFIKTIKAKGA"},
  "source": "paper PMC3553074",
  "about": "(PLoS ONE, 2013)",
  "key": {"E. coli": {"test_system": "E. coli", "assay": "microbe, parasite or virus in culture", "settings": "Escherichia coli, read-out: E. coli MIC (mM)"}, "Ft-MglA [1]": {"target": "T1, Ft-MglA (Francisella tularensis, UniProt Q5NFG1)", "assay": "biochemical", "settings": "read-out: ΔTm (°C) ^1 / Ft-MglA"}, "Ft-MglA [2]": {"target": "T1, Ft-MglA", "assay": "biochemical", "settings": "read-out: ΔTm (°C) ^1"}},
  "note": "Where two headings read alike, the source gives them in different places.",
  "data": [
    {"smiles": "CC(C)(C)CC(C)(C)c1ccc(OCCOCC[N+](C)(C)Cc2ccccc2)cc1", "note": "[Benzethonium chloride]", "values": [
      {"measurement": "MIC", "setting": "E. coli", "result": 0.05, "unit": "mM"},
      {"measurement": "ΔTm at 40 µM", "setting": "Ft-MglA [1]", "result": "8.5 ± 1.7", "unit": "°C"}
    ]},
    {"smiles": "O=C(CCCN1CCC(O)(c2ccc(Cl)cc2)CC1)c1ccc(F)cc1", "note": "[Haloperidol]", "values": [
      {"measurement": "ΔTm at 40 µM", "setting": "Ft-MglA [2]", "result": "4.6 ± 1.7", "unit": "°C"}
    ]}
  ]
}
